The record followed here is BindingDB's records for doi:10.1016/j.bmc.2005.07.038 (Ohio State University, 2005).

The assay has as its target T1, Aromatase (Homo sapiens, UniProt P11511).
T1 sequence (P11511 whole entry): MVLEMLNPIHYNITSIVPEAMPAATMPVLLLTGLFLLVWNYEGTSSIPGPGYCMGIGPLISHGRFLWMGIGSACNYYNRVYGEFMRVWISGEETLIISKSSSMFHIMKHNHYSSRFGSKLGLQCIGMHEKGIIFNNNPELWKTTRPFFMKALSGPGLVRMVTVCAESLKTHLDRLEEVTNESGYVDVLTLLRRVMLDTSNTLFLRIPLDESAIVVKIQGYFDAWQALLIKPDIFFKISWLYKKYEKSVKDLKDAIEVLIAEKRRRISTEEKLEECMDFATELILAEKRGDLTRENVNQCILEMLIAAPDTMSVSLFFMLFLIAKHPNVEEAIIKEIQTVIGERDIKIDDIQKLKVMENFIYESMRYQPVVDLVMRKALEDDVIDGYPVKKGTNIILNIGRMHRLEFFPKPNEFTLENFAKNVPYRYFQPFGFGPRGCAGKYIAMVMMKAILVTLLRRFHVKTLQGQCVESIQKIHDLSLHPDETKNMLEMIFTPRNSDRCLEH
The settings on record: pH 7; 37 °C.

With `O=c1c(-c2ccccc2)c(SCc2ccncc2)oc2cc(OCc3ccc(-c4ccccc4)cc3)ccc12` [3-phenyl-7-[(4-phenylphenyl)methoxy]-2-[(pyridin-4-ylmethyl)sulfanyl]-4H-chromen-4-one], inhibition was half-maximal at 79 nM (IC50) and the affinity, expressed as Ki, was 39 nM.
